# Library screening results

From ChEMBL document CHEMBL3988442, “University of Dundee, Small-Polar-MMV Screening Library” (2021).

Each number is a percent effect as filed.
How 0% and 100% were set is not recorded. Most values in the screen are low, and negative values occur.
Compounds were drawn at random from those tested, without regard to their results.

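Whole-cell assay for inhibitors of Mycobacterium tuberculosis growth, labelled Cornell in the record; the read-out is not stated. The concentration is filed as 10 mM, unlikely as a test dose, so the dose is not known. The record gives no direction; compounds strong in two other growth screens of this library score well above the rest, so higher reads as stronger inhibition. About 53,000 compounds were tested under these conditions; 1.7% (about 900) showed 50% or more at least once.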

* O=C(C1CCC1)N1CCC(c2ncc3c(n2)CCNC3)CC1 | -40.16%
* N#Cc1cccc(OCCN2CCn3c(nnc3C3CC3)C2)c1 | -82.47%
* O=C(O)C(F)(F)F.O=C(O)C(F)(F)F.[H][C@@]12CN(Cc3ccoc3)C[C@]1([H])C(=O)N(Cc1ccncc1)C2 | 3.583%
* O=C(NCc1cccnc1)c1cn(CCc2ccccc2)nn1 | -15.89%
* O=C(NC1CC1)N1CCc2ccc(=O)n(CC3CC3)c2CC1 | 12.31%
* CN(CCc1ccccc1)Cc1c(C2CCNCC2)[nH]c2ncccc12.Cl | -0.8397%
* COc1ccc2c(c1)CN(C)C(=O)CCN2CC(O)C(C)(C)C (stereo not given) | 5.24%
* CCN(CC)S(=O)(=O)NCC(O)c1c(Cl)cccc1Cl (stereo not given) | 45.59%
* CC(C)n1nccc1C(=O)N1CCC(c2nnsc2S(C)(=O)=O)CC1 | 12.35%
* Cc1ccc(-c2cc(N)c(=O)n(CC(=O)NCC3CC3)n2)s1 | 90.74%
* Cc1[nH]ncc1C(C)NCc1cccnc1 (stereo not given) | 32.38%
* O=C1NC(C(=O)NCc2cccnc2Oc2ccc(F)c(F)c2)CO1 (stereo not given) | 2.044%
* O=C(O)C1c2nc[nH]c2CCN1CC(c1ccccc1)c1ccccc1 (stereo not given) | 12.44%
* CS(=O)(=O)N1CCN(c2cc(-n3cccc3)ncn2)CC1 | 34%
* O=C(O)C(F)(F)F.[H][C@@]12COC[C@]1([H])[C@H](NC(=O)C1CCC1)CN2Cc1ccccn1 | 14.76%
* O=C(CN1CCCC1Cn1cncn1)NC(C1CC1)C1CC1 (stereo not given) | 15.51%
* CN(C)c1ncnc2c1CCN(S(=O)(=O)c1cccc(Cl)c1Cl)C2 | 22.48%
* O=C(Cc1ccc2c(c1)OCO2)N[C@@H]1CCNC[C@H]1O | -4.799%
* c1cnc(-c2nc(CN3CCC(c4ccn[nH]4)CC3)cs2)nc1 | 30.49%
* O=C(NCC1CCOC1)c1csc(-c2cccc(Cl)c2)n1 (stereo not given) | 16.65%
* COc1cccc(CC2CCCN2CC(N)=O)c1 (stereo not given) | 7.442%
* Cc1cc(F)ccc1-n1cc(O)c(C(=O)NCC[S+](C)[O-])n1 (stereo not given) | -14.72%
* CN1CCN(CCCNC(=O)c2cc(Cl)c3c(c2)OCO3)CC1 | 9.74%
* O=C(C1CCC2(CCN(c3nncs3)CC2)C1)N1CCCC1 (stereo not given) | -20.65%
* CCc1nc(CN2CCOC(CN(CC)c3cccnn3)C2)cs1 (stereo not given) | -32.71%
* Cc1nnsc1C(=O)NCc1nn(C)c2c1COCC2 | -5.235%
* Cc1nnc(CN2CCC(N(C)Cc3nnc(C4CC4)n3C)C2)o1 (stereo not given) | -1.018%
* CN(C)[C@@H]1CN(Cc2cccnc2)C[C@H]1c1cn(C)c2ccccc12.Cl | 6.134%
* O=C(O)C(F)(F)F.[H][C@@]12CCN(Cc3scnc3C)C[C@]1(C(=O)NCCOC)CCO2 | 22.2%
* CC(C(=O)Nc1ncccn1)N1CCc2[nH]nc(C(F)(F)F)c2C1 (stereo not given) | 3.384%
* CSCC(C)(O)CNC(=O)c1ccc(F)cc1Br (stereo not given) | -10.9%
* O=C(O)C(F)(F)F.[H][C@@]12COC[C@]1(COCC(=O)N(C)C)CN(C1CCCC1)C2 | -6.242%
* CNC(=O)C1CCN(c2nccc(CCC(F)(F)F)n2)C1 (stereo not given) | 18.53%
* Cc1cc(-c2nc(-c3cccc(CN4CCOCC4)c3)no2)no1 | -1.104%
* CN1CCN(C(=O)c2cc3sccc3n2Cc2ccc(Cl)cc2)CC1 | 23.7%
* CCc1nsc(N2CCn3c(nnc3C(F)(F)F)C2)n1 | 14.92%
* CN1CCCC1c1ccnc(-c2ccccn2)n1 (stereo not given) | -8.975%
* Cc1noc(C)c1CN1CCc2cnn(C)c2C1COCC1CC1.O=C(O)C(F)(F)F.O=C(O)C(F)(F)F (stereo not given) | 20.5%
* Cn1cc(S(=O)(=O)Nc2c(F)cccc2N2CCCC2)cn1 | -1.726%